These are yes or no findings as the source states them, for the method shown. In cells and extracts the contact can be indirect. A yes stands for co-enrichment or nearness to the bait. Other partners may have been found.
T1: BRPF1 bromodomain N651AzF (UniProt P55201)
T1 sequence (chain, 4-azido-L-phenylalanine (AzF) at 651): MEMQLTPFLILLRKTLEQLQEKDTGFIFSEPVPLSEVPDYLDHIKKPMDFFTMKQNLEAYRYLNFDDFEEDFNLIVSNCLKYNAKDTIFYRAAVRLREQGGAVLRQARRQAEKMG


Biological target: T1, BRPF1 bromodomain N651AzF
Assay: cross-linking + affinity purification with mass spectrometry; ~1 mg lysate of trichostatin A treated HEK293T cells with 50 μM BRPF1-N651AzF; 365 nm UV; Ni-NTA pull-down, washes with 400 mM KCl and Triton X-100; in-solution trypsin digestion, LC-MS/MS; +UV against -UV; only the target purified

| Binder | binding |
| --- | --- |
| interleukin enhancer-binding factor 3 (ILF3), endogenous (protein, UniProt Q12906 1-894) MRPMRIFVNDDRHVMAKHSSVYPTQEELEAVQNMVSHTERALKAVSDWIDEQEKGSSEQAESDNMDVPPEDDSKEGAGEQKTEHMTRTLRGVMRVGLVAKGLLLKGDLDLELVLLCKEKPTTALLDKVADNLAIQLAAVTEDKYEILQSVDDAAIVIKNTKEPPLSLTIHLTSPVVREEMEKVLAGETLSVNDPPDVLDRQKCLAALASLRHAKWFQARANGLKSCVIVIRVLRDLCTRVPTWGPLRGWPLELLCEKSIGTANRPMGAGEALRRVLECLASGIVMPDGSGIYDPCEKEATDAIGHLDRQQREDITQSAQHALRLAAFGQLHKVLGMDPLPSKMPKKPKNENPVDYTVQIPPSTTYAITPMKRPMEEDGEEKSPSKKKKKIQKKEEKAEPPQAMNALMRLNQLKPGLQYKLVSQTGPVHAPIFTMSVEVDGNSFEASGPSKKTAKLHVAVKVLQDMGLPTGAEGRDSSKGEDSAEETEAKPAVVAPAPVVEAVSTPSAAFPSDATAEQGPILTKHGKNPVMELNEKRRGLKYELISETGGSHDKRFVMEVEVDGQKFQGAGSNKKVAKAYAALAALEKLFPDTPLALDANKKKRAPVPVRGGPKFAAKPHNPGFGMGGPMHNEVPPPPNLRGRGRGGSIRGRGRGRGFGGANHGGYMNAGAGYGSYGYGGNSATAGYSQFYSNGGHSGNASGGGGGGGGGSSGYGSYYQGDNYNSPVPPKHAGKKQPHGGQQKPSYGSGYQSHQGQQQSYNQSPYSNYGPPQGKQKGYNHGQGSYSYSNSYNSPGGGGGSDYNYESKFNYSGSGGRSGGNSYGSGGASYNPGSHGGYGGGSGGGSSYQGKQGGYSQSNYNSPGSGQNYSGPPSSYQSSQGGYGRNADHSMNYQYR | binds |
| ACSS1 (enzyme, UniProt Q9NUB1 38-689) ASGPSGSAPAVAAAAAQPGSYPALSAQAAREPAAFWGPLARDTLVWDTPYHTVWDCDFSTGKIGWFLGGQLNVSVNCLDQHVRKSPESVALIWERDEPGTEVRITYRELLETTCRLANTLKRHGVHRGDRVAIYMPVSPLAVAAMLACARIGAVHTVIFAGFSAESLAGRINDAKCKVVITFNQGLRGGRVVELKKIVDEAVKHCPTVQHVLVAHRTDNKVHMGDLDVPLEQEMAKEDPVCAPESMGSEDMLFMLYTSGSTGMPKGIVHTQAGYLLYAALTHKLVFDHQPGDIFGCVADIGWITGHSYVVYGPLCNGATSVLFESTPVYPNAGRYWETVERLKINQFYGAPTAVRLLLKYGDAWVKKYDRSSLRTLGSVGEPINCEAWEWLHRVVGDSRCTLVDTWWQTETGGICIAPRPSEEGAEILPAMAMRPFFGIVPVLMDEKGSVVEGSNVSGALCISQAWPGMARTIYGDHQRFVDAYFKAYPGYYFTGDGAYRTEGGYYQITGRMDDVINISGHRLGTAEIEDAIADHPAVPESAVIGYPHDIKGEAAFAFIVVKDSAGDSDVVVQELKSMVATKIAKYAVPDEILVVKRLPKTRSGKVMRRLLRKIITSEAQELGDTTTLEDPSIIAEILSVYQKCKDKQAAAK | binds |
